Results are given in words; binding and its absence hold for the method and conditions named. Tags and fused reporters may be left off the sequences shown.

Consider one molecule from paper PMC7671560, “SAXS studies of X-ray induced disulfide bond damage: Engineering high-resolution insight from a low-resolution technique” (PLoS ONE, 2020).

The experiment has as its target endoHCYS (FRAGCYS-endoH-His6; Endoglycosidase-H with a 7 aa cysteine-containing fragment on its N-terminus) (UniProt P04067). Put plainly: SAXS; disulfide bonds reduced with 2 mM DTT; pH 5, 6, 7.5 and 9; 5.0, 2.5 and 1.25 mg/ml; data collected as for the dimer; both purified.

B1: endoHCYS (FRAGCYS-endoH-His6; Endoglycosidase-H with a 7 aa cysteine-containing fragment on its N-terminus) (enzyme)
chain: SLSTGCYVKQGPTSVAYVEVNNNSMLNVGKYTLADGGGNAFDVAVIFAANINYDTGTKTAYLHFNENVQRVLDNAVTQIRPLQQQGIKVLLSVLGNHQGAGFANFPSQQAASAFAKQLSDAVAKYGLDGVDFDDEYAEYGNNGTAQPNDSSFVHLVTALRANMPDKIISLYNIGPAASRLSYGGVDVSDKFDYAWNPYYGTWQVPGIALPKAQLSPAAVEIGRTSRSTVADLARRTVDEGYGVYLTYNLDGGDRTADVSAFTRELYGSEAVRTP
notes: 7 aa fragment with a single free cysteine ('FRAGCYS') attached to the flexible N-terminus of endoH; Endoglycosidase-H (endoH), P04067, aa 47-313; has no native cysteines; The chain is written once as the protomer; two protomers join through an intermolecular disulfide between the cysteines of FRAGCYS (about 75% dimer, 25% monomer in the preparation); The structure's own numbering has Val-8 as the …
Turning to B1, the binding entry was “no binding (condition: with 2 mM DTT)”.
